The record followed here is PubChem BioAssay AID1508600 (Functional Genomics Laboratory (NCATS/FGL), 2020).

Screen size: about 53,000 sequences; about 3,700 (7%) were called active.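 How the source made its calls: active means gene knockdowns whose robust z-score for IL-1 alpha signal is at least 2 or at most -2, so actives lie on both sides; inactive means the rest.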 Some of the results follow.

The assay is described as follows: Components of the Cytosolic LPS Sensing Pathway: Gene Identification via Genome-wide siRNA Screen.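 Further: robust z of the log signal after scaling to non-targeting control siRNA wells of the plate.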 Particulars: RAW264.7 macrophages, IL-1a HTRF, actives lie on both sides, screened at 100 nM (by protocol), cells primed 5 h with Pam3CSK4 first. In a few lines:
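Read-out: IL-1a HTRF on supernatant, divided by plate negative-control median ×100, log-transformed and converted to robust z-score. Cells were RAW264.7 given 100 nM siRNA, Pam3CSK4-primed 5 hours, then LipidA-transfected 24 hour.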
Take GGUUCAAGGAUGAAUUAGATT against Trappc6b: the z-score is active: -2.03.

Regarding GGCACUGUGUCAAGGUAAGTT against Ccdc142, the z-score is inactive: -1.6.

With GGCUGAGGUGGUUACAUUATT against Coa7, the z-score is inactive: 0.74.

For the sequence AAAGUUCGCCGUCUCUGGGTT against Olfr426, the z-score is inactive: 0.448.

As for GGGAUCAGAAAAGUUAACATT against Acaca, the z-score is inactive: 0.785.

With GGGACAGUGGACCAUUAUGTT against Rnf8, the z-score was active: -2.41.

In the case of GGUCUACAUGUUCAAGUGUTT against Laptm5, the z-score is inactive: 1.62.

Turning to GGAGCUACCUCUGGAUACATT against Tmem269, the z-score was inactive: 1.28.

Regarding GGCUGAGAUCAAGAGGAUCTT against Ap2a1, the z-score is inactive: 1.58.

For the sequence CCAGUGGAUGAGGUCAUUGTT against Rnf208, the z-score is inactive: -0.992.

For the sequence GGACAUUUUUGACAUCAUATT against Tubg1, the z-score is inactive: 0.0604.

As for GGAGAAGGCAACUUCUGUUTT against Zfp641, the z-score is inactive: 0.19.

Take CGAUCACCAUGAUGAAUUCTT against Bex3: the z-score is inactive: -0.128.

For GGUUGAAUUGGAGAAGAUUTT against Pcnt, the z-score is inactive: -1.76.

For CCGUCAGAAUCAAGCUUUUTT against Primpol, the z-score is inactive: 0.729.

In the case of GCCAUCGCUAACUUACGGATT against Gdpd5, the z-score is inactive: -1.81.

Consider CGAGAGAGUGUUACCAUCGTT against Prkd3, for which the z-score was inactive: -0.858.

As for GCUCAUCUCCUUGAAUUCATT against Agbl5, the z-score was inactive: 0.31.

Take GGGCCCAGAUUUCAAUGGGTT against Car14: the z-score was inactive: 0.379.

Consider GGCUUUCCUUCGGAAGAAUTT against Abca14, for which the z-score is inactive: -1.15.

Regarding GGUAGGUCGUCGAGAAUACTT against Prss44, the z-score is inactive: 0.17.

On to GGACGACAAGGACUUCACGTT against Kcna1, for which the z-score was inactive: -1.57.

On to CCACCCUGCCUAGAAACUUTT against Pgap6, for which the z-score was inactive: -0.32.

Turning to CGGAAAGCAUUAAAGCUAUTT against Bbs7, the z-score was inactive: -0.0491.

Regarding GGUAAACUGCUCAAGAUGUTT against Ceacam12, the z-score was inactive: 0.832.

On to GGAGCUGUUUUUCCACUCCTT against Phlda2, for which the z-score was inactive: -0.337.

With GUCAGAAAGAGAAGCUCGATT against Rps28, the z-score was inactive: -0.457.

CCACCAAAGGAGAAAGAGATT against Tcea3: the z-score was inactive: -0.46.

For CCAAUUACGGACUGUGUGUTT against Wfdc2, the z-score was inactive: -0.335.

As for GGUCUUUGACAGAAUAAAATT against Yipf1, the z-score was inactive: 1.94.

GCCAUAAUGCUAUUGUUCATT against Cacna1b: the z-score is inactive: 1.79.

As for GCAGAUGUCAUGGUAACUCTT against Kmt5b, the z-score was inactive: -0.459.

In the case of “GCUCCUACAAAACAUCCGATT against A130079P16Rik”, the z-score was active: -2.12.

Turning to CCCAAUCCUCCCAUGUUUCTT against Usp22, the z-score was inactive: -0.619.

For the sequence GGAGCUAUGUUCAGUUCUUTT against Qsox1, the z-score is inactive: 0.438.

In the case of GCGACAAAUGUAGCCCUUGTT against Mrpl36, the z-score is inactive: -0.0686.

For the sequence GCCUAAGAAAUUAGUGAAUTT against Rflna, the z-score is inactive: 0.204.

As to CCAUUGUUCCAUUCUAAGUTT against Sema7a, the z-score is inactive: 0.857.

Turning to CCCGGAAACAACACAUUGCTT against Tyrobp, the z-score is active: 2.88.

In the case of CCUAUAUUUUCAAAGAUGGTT against Gstm1, the z-score is inactive: -0.126.

For “GACUGGAUUUUAGUUCAUUTT against A130014H13Rik”, the z-score was inactive: 0.738.

Regarding CCAGGGUGGUCUUUUGAAGTT against Eif1, the z-score was inactive: -1.66.

For GCAGAAGUACGAUGGAAUCTT against Rpl11, the z-score is inactive: 0.73.

Turning to “GGCUGAUUCUCAUCACAUUTT against E130309D02Rik”, the z-score was inactive: 0.0413.

As for GGUCAAAGAUGCAUUGAAGTT against Glmn, the z-score is inactive: -0.324.

As to GGUUUUUCAGAAAUUAGUGTT against Olfr1163, the z-score is inactive: -0.24.

Turning to GCCAGUCUAUGCAAACCCUTT against Foxo3, the z-score is inactive: -1.12.

Take GCUAGUCCUCAAGCUUCUGTT against Snapc2: the z-score is inactive: 0.28.

CCUUGUACAACACUGGCCGTT against Car11: the z-score is inactive: -0.356.

GGUGUUCAACUCCACUAUGTT against Nhlrc1: the z-score is inactive: 0.511.

Consider CCUCAUGUAAUUGGACCAATT against Eef1akmt2, for which the z-score was inactive: 0.642.

For the sequence CGAAUGUCUCACUCAUUGCTT against Tmem106c, the z-score was inactive: 0.676.

On to GGAUUUUGCACAAACAGAATT against Col11a1, for which the z-score was inactive: -1.07.

With GCUCGAUGUGAACUGCUAGTT against Ankrd9, the z-score was active: 2.12.

For GGAUGAGAACUACAUGAUCTT against Card10, the z-score is inactive: 0.787.

Regarding GCUUAGGAGAAAGAGCAAUTT against Gpr139, the z-score was inactive: 0.185.

With GGAAAAUUUGCUGUGGUUATT against Stk17b, the z-score is inactive: 0.405.

With GGACUAUGCCAAUGUCAGATT against Zfp763, the z-score is inactive: 0.0585.

With GGGCUUAUGGAGUUGUAAATT against Avpi1, the z-score is inactive: -0.633.

As for GGUCAUGCAAGACAAGAUCTT against Lrrc8c, the z-score is inactive: 0.487.

Regarding AAUGCUAUUAUACCAACUGTT against Vmn1r214, the z-score was inactive: 0.86.

For GGAAACCAGGUCUCAGAGUTT against Pde4a, the z-score is inactive: -0.146.

Regarding “GCAGUUAAUACUUACCGCGTT against A430057M04Rik”, the z-score was inactive: 0.657.

As to GGCCCUCCCAAAUCAUUUGTT against Slc30a6, the z-score is inactive: 0.188.

As for CGUUUCAACAAGCUCGUGUTT against Rbmxl2, the z-score is inactive: 1.02.

GGCAGAAAAUUCUUACAAATT against Spats2l: the z-score was inactive: 0.935.

As to GCAAGUGAUGAAUGCUUACTT against Ncln, the z-score is active: -2.62.

Consider GGCAAGGUUCUUGUUUUUATT against Fam187b, for which the z-score is inactive: 0.966.
